{"source": "PubChem BioAssay AID1259260 (Sanger Institute, 2017)", "purpose": "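Kinases whose knock-down kills colorectal cancer cells or boosts drug effects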 (primary screen)", "cell system": "human NCI-H716 colorectal cancer cells", "reagent": "siRNA pool against human genes", "conditions": "anchor drugs BYL719 (alpelisib) 1 µM, cetuximab 5 µg/ml or trametinib 10 nM, each at a dose chosen to harm viability only mildly; DMSO vehicle for the knock-down-alone arm", "read-out": "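Mean viability over replicates against non-targeting siRNA, robust z-score without drug, and per-drug synergy comparing combined with single treatments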", "scale": "viability robust z-score, siRNA alone: higher = more surviving cells; below -3 called essential", "active means": "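Essential when the robust z-score for knock-down alone falls below -3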", "meaning of the calls": "active = essential (knock-down alone lowers viability); inactive = no essential effect", "note": "This is one part, drawn at random, of 794 reagents tested. 13 of all reagents (1.6%) were called active. 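Calls reflect only knock-down without drug; synergy above 0.15 was grouped apart and does not change the call.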 Unmarked entries are inactive. Not all columns of the deposit are shown. Not stated in the record: the amount of reagent, the time to read-out."}
{"Target gene":"PNKP (GeneID 11284)","viability robust z-score, siRNA alone":-0.612}
{"Target gene":"MAST3 (GeneID 23031)","viability robust z-score, siRNA alone":0.602}
{"Target gene":"AXL (GeneID 558)","viability robust z-score, siRNA alone":0.602}
{"Target gene":"RYK (GeneID 6259)","viability robust z-score, siRNA alone":0.602}
{"Target gene":"MAP3K3 (GeneID 4215)","viability robust z-score, siRNA alone":0.283}
{"Target gene":"EEF2K (GeneID 29904)","viability robust z-score, siRNA alone":0.602}
{"Target gene":"ZAP70 (GeneID 7535)","viability robust z-score, siRNA alone":0.602}
{"Target gene":"CERT1 (GeneID 10087)","viability robust z-score, siRNA alone":0.602}
{"Target gene":"LCK (GeneID 3932)","viability robust z-score, siRNA alone":-0.374}
{"Target gene":"N4BP2 (GeneID 55728)","viability robust z-score, siRNA alone":0.602}
{"Target gene":"DYRK2 (GeneID 8445)","viability robust z-score, siRNA alone":0.602}
{"Target gene":"THNSL1 (GeneID 79896)","viability robust z-score, siRNA alone":0.602}
{"Target gene":"RPS6KB2 (GeneID 6199)","viability robust z-score, siRNA alone":0.602}
{"Target gene":"DGKB (GeneID 1607)","viability robust z-score, siRNA alone":-2.3}

Targets listed so far whose target name starts with D or d:
{"Target gene":"DYRK2 (GeneID 8445)","viability robust z-score, siRNA alone":0.602}
{"Target gene":"DGKB (GeneID 1607)","viability robust z-score, siRNA alone":-2.3}

The results go on:
{"Target gene":"PIK3C3 (GeneID 5289)","viability robust z-score, siRNA alone":0.423}
{"Target gene":"CKMT2 (GeneID 1160)","viability robust z-score, siRNA alone":0.602}
{"Target gene":"CDK13 (GeneID 8621)","viability robust z-score, siRNA alone":0.602}
{"Target gene":"DLG1 (GeneID 1739)","viability robust z-score, siRNA alone":-1.2}
{"Target gene":"MAP2K2 (GeneID 5605)","viability robust z-score, siRNA alone":0.602}
{"Target gene":"MTOR (GeneID 2475)","viability robust z-score, siRNA alone":0.602}
{"Target gene":"RPS6KB1 (GeneID 6198)","viability robust z-score, siRNA alone":-0.39}
{"Target gene":"STK10 (GeneID 6793)","viability robust z-score, siRNA alone":0.602}
{"Target gene":"TNK1 (GeneID 8711)","viability robust z-score, siRNA alone":0.602}
{"Target gene":"NTN4 (GeneID 59277)","viability robust z-score, siRNA alone":0.602}
{"Target gene":"RAD21 (GeneID 5885)","viability robust z-score, siRNA alone":0.429}
{"Target gene":"CSNK1G1 (GeneID 53944)","viability robust z-score, siRNA alone":0.602}
{"Target gene":"NEK8 (GeneID 284086)","viability robust z-score, siRNA alone":0.602}
{"Target gene":"MAPKAPK5 (GeneID 8550)","viability robust z-score, siRNA alone":-1.53}
